The list shows a part of the results.

Amino acid sequences for entries named in this document (tags omitted).
UniProt Q0JBA9, entry or part of it: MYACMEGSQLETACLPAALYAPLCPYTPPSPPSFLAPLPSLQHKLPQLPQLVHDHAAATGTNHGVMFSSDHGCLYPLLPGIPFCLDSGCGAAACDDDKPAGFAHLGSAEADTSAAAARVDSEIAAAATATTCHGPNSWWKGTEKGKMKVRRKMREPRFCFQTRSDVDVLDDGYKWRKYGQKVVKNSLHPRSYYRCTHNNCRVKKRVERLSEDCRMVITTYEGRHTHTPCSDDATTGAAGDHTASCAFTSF

The target of this assay is OsWRKY34 (Oryza sativa, UniProt Q0JBA9 1-250). Description: protein-binding microarray (RPBM); PBS, 2% BSA, 51.3 ng/ul salmon testes DNA, 50 uM zinc acetate, 200 nM TF, 25 C, 1 h; high values mean tight binding. Particulars: protein: recombinant; tags: N-terminal polyhistidine and DsRed monomer fusion (pET32a); label: CyDye5-dUTP incorporated in the synthesized complementary strand; 3' TTTTT single-stranded linker to array surface; dsDNA, one strand shown. The procedure, abridged:
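The binding signal is fluorescence intensity per array feature (arbitrary units). Readings came from an Axon 4000B scanner after a washed, 2% BSA-blocked, double-stranded custom Agilent array had been incubated for 1 h at 25 °C with 200 nM protein and 50 µM zinc acetate. The protein was a Ni–NTA-purified transcription factor fused N-terminally to polyhistidine and DsRed, expressed in E. coli BL21-CodonPlus.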
With “GTTTTTTCTTCTTTTTTTTTTACGGGACCACTTTTTTTTTCGGAGTCACCTAGTGCAG”, the binding signal was 13400 fluorescence intensity (a.u.).
For the sequence “TGCATGAAACACTTAATCTTTATCTTCATCTTCATTTTCACGGAGTCACCTAGTGCAG”, the binding signal was 9030 fluorescence intensity (a.u.).
In the case of “GTGGGTACTTAGTGTTAGTGTTGTCGTGCGTTATCCATGTCGGAGTCACCTAGTGCAG”, the binding signal is 13900 fluorescence intensity (a.u.).
In the case of “ACAAGTCCAAAACACCTTTCTTTGACTTCACACTATTCTTCGGAGTCACCTAGTGCAG”, the binding signal is 12500 fluorescence intensity (a.u.).
Then “TATTCCTGTCAGAATCCTATGTTTTTCTTATTCCTCCGTTCGGAGTCACCTAGTGCAG”, with 9210 fluorescence intensity (a.u.).
For the sequence “CATTCTTGTACTTCTTCTGTACAGTTCCTTTTGGTTAATTCGGAGTCACCTAGTGCAG”, the binding signal was 10700 fluorescence intensity (a.u.).
Turning to “TTGGACTCTTTTCTCCATCTCTCATTTTCACACTGGGTCCCGGAGTCACCTAGTGCAG”, the binding signal is 9210 fluorescence intensity (a.u.).
As to “TGAAACAAAATTGAGGTTGTTGGGAGGGTTTCTGATCATCCGGAGTCACCTAGTGCAG”, the binding signal is 10600 fluorescence intensity (a.u.).
With “CACGTCGGTTGTGCTGGTAGTTGCCACTGTCCTCATCGTCCGGAGTCACCTAGTGCAG”, the binding signal is 10100 fluorescence intensity (a.u.).
Then “ACAGGCCCAGTAGCACTCTTTCTGTCACTCACTCACTCACCGGAGTCACCTAGTGCAG”, with 9250 fluorescence intensity (a.u.); and “GACAAGCGTGGTGAAGTGGTGGGGAGTTGCGGGAGGGAGGCGGAGTCACCTAGTGCAG”, with 14600 fluorescence intensity (a.u.); and “CAAACGGGTCCGCGCCGTTCCTGCCTCGCTGCCGCCTGCCCGGAGTCACCTAGTGCAG”, with 10100 fluorescence intensity (a.u.).
For the sequence “TGGATTTATTTATTCTTGTTCTTTTTCTCGAAAATTTCCACGGAGTCACCTAGTGCAG”, the binding signal was 8640 fluorescence intensity (a.u.).
Then “CATCGAATCATCGCTCGACTTTGGTTATCAGTCTTTTTTTCGGAGTCACCTAGTGCAG”, with 10200 fluorescence intensity (a.u.).
Then “CCTTGCTGCGGCGAACCGCAGCCCACCGCTACAGTGCTGTCGGAGTCACCTAGTGCAG”, with 8020 fluorescence intensity (a.u.); and “CCACCATGGTCTCGCTCATTCTGTTTGCTTCACCTACTCTCGGAGTCACCTAGTGCAG”, with 14500 fluorescence intensity (a.u.); and “AGTTATATATATAGTGGGGAGTTACCTTTGAACCGTGCTCCGGAGTCACCTAGTGCAG”, with 9050 fluorescence intensity (a.u.).
As to “TGTGGGGTCATGGATTTGAATGTAAAAATGTTAACACTTGCGGAGTCACCTAGTGCAG”, the binding signal is 10100 fluorescence intensity (a.u.).
Then “AACTATAATTAATAGTAACAAAGAGGGAGGGGAGGGTTCGCGGAGTCACCTAGTGCAG”, with 8820 fluorescence intensity (a.u.).
Then “CCGGAGCTCGCCCGTCATCGTCGCCCACCGAGCCACTTCACGGAGTCACCTAGTGCAG”, with 8140 fluorescence intensity (a.u.); and “GATGAATCTATTCGCATCACTCGTTCGTCAATTTCAGCTGCGGAGTCACCTAGTGCAG”, with 8800 fluorescence intensity (a.u.); and “TTTCACGAGTTTTCAACACTTAGCTCATTTTCACCGATATCGGAGTCACCTAGTGCAG”, with 8170 fluorescence intensity (a.u.).
As to “TCCTAACCCTTCATTCATTTCCCAATCCCAATCCCACCCTCGGAGTCACCTAGTGCAG”, the binding signal is 8220 fluorescence intensity (a.u.).
As for “GACCAGATTGTTTTGGAGGCTTGCTTTCTTCATCGTTATGCGGAGTCACCTAGTGCAG”, the figure is 9600 fluorescence intensity (a.u.); as for “AGGAGGGCGGAGGAGGTGGTGGTGGTGGTGGTGGAGAGAGCGGAGTCACCTAGTGCAG”, 25700 fluorescence intensity (a.u.).
For the sequence “CCTCCTTTTGACTCAGCAAGTCAATTGTGGTCAACCTGCCCGGAGTCACCTAGTGCAG”, the binding signal is 8970 fluorescence intensity (a.u.).
Then “TCCCTGCTTATTTCATTTTCCAGGAGGCTAAAACATGCTTCGGAGTCACCTAGTGCAG”, with 8270 fluorescence intensity (a.u.); and “ATCTTTCTCTCCTCCTCTCTTCTAGCAATCGGTCGTTTCCCGGAGTCACCTAGTGCAG”, with 8390 fluorescence intensity (a.u.); and “GAGAGTCGACAACCGTTGATCTGTCCATCGACGGCGCGGGCGGAGTCACCTAGTGCAG”, with 8050 fluorescence intensity (a.u.).
On to “ATGTATAACACTGTTGACTTTTTAAGATATATTTGATCATCGGAGTCACCTAGTGCAG”, for which the binding signal is 15900 fluorescence intensity (a.u.).
As for “GGACAACATCTTCGTGGCTTCCCTGTCCACTCTTTCCTGCCGGAGTCACCTAGTGCAG”, the figure is 10900 fluorescence intensity (a.u.); as for “CGCCGTCCGCCGCCTTGTCGGCTCGCCGGCGAGCCGTCTCCGGAGTCACCTAGTGCAG”, 10200 fluorescence intensity (a.u.); as for “AGATACACTGTGTTGCTTGCGTTCTTGTGCACTCTTGTATCGGAGTCACCTAGTGCAG”, 9510 fluorescence intensity (a.u.).
“TGGTGTGTTTTTCCCATTCTGACCCTTGTGAGGGCACTATCGGAGTCACCTAGTGCAG”: the binding signal is 8820 fluorescence intensity (a.u.).
As for “TGGCCTTTGTGGTTAATGTGTTGTTTCATATCTCTTTCTCCGGAGTCACCTAGTGCAG”, the figure is 10500 fluorescence intensity (a.u.); as for “GCGGTGGTGGCCGTGGTGGTGGAGGAGGTGGAGGCGCTGCCGGAGTCACCTAGTGCAG”, 10100 fluorescence intensity (a.u.); as for “CTGCAGCTTCCTACCTCCATCCATCCATTCATCTTCTTCTCGGAGTCACCTAGTGCAG”, 8360 fluorescence intensity (a.u.).
As for “CTATTCCTAGTTTCTATCACTCCTACATCGTAAGTTGTCACGGAGTCACCTAGTGCAG”, the figure is 8520 fluorescence intensity (a.u.); as for “ACTGCTTTGTTCTATTTGATTATTTTTTTACTCATCAGATCGGAGTCACCTAGTGCAG”, 15900 fluorescence intensity (a.u.); as for “TCGCGTCGCGTTTCGACCTCGCGCTCTGGGTCTGGGTGTCCGGAGTCACCTAGTGCAG”, 8330 fluorescence intensity (a.u.).
Then “TCACGTACGTCCCCTCTACCGGCGACGTCGTCGTTGACTGCGGAGTCACCTAGTGCAG”, with 10200 fluorescence intensity (a.u.); and “TTTCCTCACCCATCTCATCAACGCCTTCTTGCTCTCTATCCGGAGTCACCTAGTGCAG”, with 8280 fluorescence intensity (a.u.).

Values taken from publication PMC7819943, “Rice protein-binding microarrays: a tool to detect cis-acting elements near promoter regions in rice”.
